Source: PMC5027278
Read-outs that look alike come from different tables or passages of the source. Results are given in words; binding and its absence hold for the method and conditions named. In cells and extracts the contact can be indirect. Some binding calls cover weakened binding; strength is not graded here.

By UniProt entry, the sequences of proteins in these tests, tags left out. Residues count along the entry.
UniProt P29317, residues 24-976: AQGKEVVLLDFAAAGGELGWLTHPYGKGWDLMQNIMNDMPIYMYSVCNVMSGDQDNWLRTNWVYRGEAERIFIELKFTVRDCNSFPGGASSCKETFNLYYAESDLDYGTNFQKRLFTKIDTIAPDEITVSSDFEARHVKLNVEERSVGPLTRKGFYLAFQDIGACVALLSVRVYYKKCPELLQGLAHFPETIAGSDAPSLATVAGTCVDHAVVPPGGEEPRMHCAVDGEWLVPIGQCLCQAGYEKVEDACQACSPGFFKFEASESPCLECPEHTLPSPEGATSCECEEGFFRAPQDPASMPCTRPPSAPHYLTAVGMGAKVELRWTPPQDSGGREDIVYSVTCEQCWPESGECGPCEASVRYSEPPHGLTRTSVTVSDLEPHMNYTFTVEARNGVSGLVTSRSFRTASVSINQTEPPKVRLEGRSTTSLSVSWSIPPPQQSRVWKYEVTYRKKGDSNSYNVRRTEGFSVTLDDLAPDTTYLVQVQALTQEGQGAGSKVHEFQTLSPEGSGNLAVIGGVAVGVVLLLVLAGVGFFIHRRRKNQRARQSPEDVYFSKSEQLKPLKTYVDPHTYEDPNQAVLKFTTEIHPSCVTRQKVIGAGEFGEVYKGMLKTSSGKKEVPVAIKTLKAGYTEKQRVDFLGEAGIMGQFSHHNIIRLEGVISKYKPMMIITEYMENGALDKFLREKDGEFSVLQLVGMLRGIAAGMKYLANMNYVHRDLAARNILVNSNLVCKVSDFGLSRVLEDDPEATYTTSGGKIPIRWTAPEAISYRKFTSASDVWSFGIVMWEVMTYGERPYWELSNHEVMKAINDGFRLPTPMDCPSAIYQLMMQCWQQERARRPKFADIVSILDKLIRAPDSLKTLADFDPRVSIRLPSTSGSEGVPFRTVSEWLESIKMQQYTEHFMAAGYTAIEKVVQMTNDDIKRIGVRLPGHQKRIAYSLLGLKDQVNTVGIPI

B1: Numb PTB adaptor protein (protein, UniProt P49757 1-651)
chain: MNKLRQSFRRKKDVYVPEASRPHQWQTDEEGVRTGKCSFPVKYLGHVEVDESRGMHICEDAVKRLKAERKFFKGFFGKTGKKAVKAVLWVSADGLRVVDEKTKDLIVDQTIEKVSFCAPDRNFDRAFSYICRDGTTRRWICHCFMAVKDTGERLSHAVGCAFAACLERKQKREKECGVTATFDASRTTFTREGSFRVTTATEQAEREEIMKQMQDAKKAETDKIVVGSSVAPGNTAPSPSSPTSPTSDATTSLEMNNPHAIPRRHAPIEQLARQGSFRGFPALSQKMSPFKRQLSLRINELPSTMQRKTDFPIKNAVPEVEGEAESISSLCSQITNAFSTPEDPFSSAPMTKPVTVVAPQSPTFQANGTDSAFHVLAKPAHTALAPVAMPVRETNPWAHAPDAANKEIAATCSGTEWGQSSGAASPGLFQAGHRRTPSEADRWLEEVSKSVRAQQPQASAAPLQPVLQPPPPTAISQPASPFQGNAFLTSQPVPVGVVPALQPAFVPAQSYPVANGMPYPAPNVPVVGITPSQMVANVFGTAGHPQAAHPHQSPSLVRQQTFPHYEASSATTSPFFKPPAQHLNGSAAFNGVDDGRLASADRHTEVPTGTCPVDPFEAQWAALENKSKQRTNPSPTNPFSSDLQKTFEIEL

Legend:
[1] = target: VC-tagged EphA2 (UniProt P29317); assay: split reporter; BiFC: VN and VC fragments of YFP (Venus) fused to the C termini of the two proteins, co-transfected into HEK293T (293) cells; cells fixed and analysed for fluorescence
[2] = target: VC-tagged EphA2 (UniProt P29317); assay: as above; remark: listed apart in the source

Molecule | binding [1] | binding [2]
ErbB2-VN (from UniProt P04626 23-1255) (receptor) | binds | 
B1 |  | no binding
